Experimental findings from PubChem BioAssay AID2685 (National Center for Advancing Translational Sciences (NCATS), 2010) are described below.

The list shows a part of the results. The main result of the screen is listed elsewhere. These columns were measured beside it and carry no call. Compounds called inactive in the main read-out are mostly missing here. Potencies come from curve fits of mixed quality, noted in brackets.

A short description of the assay: qHTS Assay for Lipid Storage Modulators in Drosophila S3 Cells.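 For cell number change: cells counted by Cell Tracker Red CMTPX staining in the red channel.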 The following applies: BODIPY lipid droplet fluorescence, 18-24 h; for cell number change: measured here: cell count max response, cells fed with added oleic acid. The procedure, abridged:
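Laser-scanning cytometry quantifies lipid droplet accumulation (500–530 nm total intensity; droplet/cell object ratio) in oleic acid-fed (400 uM added) Drosophila S3 cells treated with a concentration series. 20 uM Triacsin C defined 100% inhibition.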

Setting [1] is: measured here: lipid fluorescence (Fed channel) AC50, cells fed with added oleic acid.
[2] abbreviates: measured here: cell number channel AC50, cells fed with added oleic acid.

Take `COc1ccc(NC(=O)C2CCC(C(C)(C)C)CC2)cc1S(=O)(=O)N1CCCCC1` (stereo not given): the cell number change is 12.6%. Also, under setting [1], the AC50 – broadly, the concentration giving half of the maximal activity seen – is 0.366 µM [falling, full curve].

On to `CC1=NN(C(N)=S)C(=O)C1N=Nc1ccc(O)cc1` (stereo not given), for which the cell number change was -31.7%. The AC50 under setting [2] is 18.4 µM [falling, single point]. In addition, the AC50 under setting [1] is 11.6 µM [falling, partial curve].

With `COc1ccc(-n2c(C)c(C)c3c(NCCCO)ncnc32)cc1`, the cell number change is -0.709%. The AC50 under setting [1] was 3.66 µM [rising, full curve, poor fit].

For `O=C(CNC(=S)N(Cc1ccccc1)Cc1ccccc1F)NCCc1ccccc1`, the cell number change was determined as 75.3%. In addition, under setting [2], the AC50 is 20.6 µM [rising, single point].

Regarding `CCOC(=O)c1ccc(NC(=O)c2cc(=O)[nH]c3ccccc23)cc1`, the cell number change was -32.7%.

For `C#CCOC(=O)C[N+](C)(C)CC#Cc1ccccc1`, the cell number change was -68.9%. Besides, under setting [2], the AC50 is 18.4 µM [falling, partial curve, poor fit]. In addition, under setting [1], the AC50 was 20.6 µM [falling, partial curve, poor fit].

In the case of `CC(C)(Oc1ccc(Cl)cc1)C(=O)Nc1ccc2oc(-c3ccncc3)nc2c1`, the cell number change amounted to 5.62%. Also, the AC50 under setting [1] is 1.84 µM [rising, partial curve].

`NC(=O)CC(NC(=O)Cc1cccc2ccccc12)c1ccc(NC2CC3CCC2C3)c([N+](=O)[O-])c1` (stereo not given): the cell number change was -21.4%.

Consider `O=C(c1cc2ccccc2oc1=O)N(Cc1ccc(F)cc1)C1CCS(=O)(=O)C1` (stereo not given), for which the cell number change is -7.35%.

As to `Cn1c2c(c(=O)n(C)c1=O)C(c1ccc(Br)cc1)C(C#N)=C(N)N2` (stereo not given), the cell number change is 29.1%. For the same compound, the AC50 under setting [1] is 29.1 µM [rising, single point].

For `COC(=O)CCCSc1nccn1-c1ccccc1`, the cell number change was -13.1%. In addition, under setting [2], the AC50 was 1.16 µM [rising, single point]. Besides, the AC50 under setting [1] was 1.16 µM [rising, single point].

Take `COc1cc2[nH]c(=O)n(CCCCCC(=O)NCCCN3CCOCC3)c(=O)c2cc1OC`: the cell number change was 3.28%. The AC50 under setting [1] is 6.51 µM [falling, single point].

For the compound `Cc1c(NC(=O)CN2C(=O)NC3(CCC(C)CC3)C2=O)c(=O)n(-c2ccccc2)n1C` (stereo not given), the cell number change is -48%. Further, the AC50 under setting [2] was 9.2 µM [falling, partial curve, poor fit]. Under setting [1], the AC50 was 18.4 µM [falling, single point].

Take `Cc1ccc(C)c(NS(=O)(=O)c2ccc3[nH]c(=O)oc3c2)c1`: the cell number change stood at 81.5%. Moreover, the AC50 under setting [2] is 16.4 µM [rising, single point]. Besides, the AC50 under setting [1] is 29.1 µM [rising, partial curve].

For the compound `COc1ccc(-c2nnc(SCC(=O)N3CCCC3)o2)c(OC)c1`, the cell number change was -20.5%.

For `CCCc1cc(=O)oc2cc(C)cc(OCC(=O)NCCN3CCOCC3)c12`, the cell number change was -7.16%. For the same compound, the AC50 under setting [1] was 2.91 µM [rising, single point].

Consider `CSc1ccc(CNCc2ccc3c(c2)OCO3)cc1`, for which the cell number change stood at 19.4%.

For the compound `Cc1cccc2sc(NC(=O)CSc3cn[nH]n3)nc12`, the cell number change was -0.952%.

Regarding `CCN(CC)C(=O)c1oc2ccc(S(=O)(=O)N3CC(C)CC(C)C3)cc2c1C` (stereo not given), under setting [1], the AC50 is 0.82 µM [falling, full curve].

As to `Cc1nc2ccccc2c(=O)n1/N=C/c1ccc([N+](=O)[O-])o1`, the cell number change is -57.9%. For the same compound, the AC50 under setting [2] is 29.1 µM [falling, single point]. Further, the AC50 under setting [1] was 29.1 µM [falling, single point].

On to `Cc1ccc(-n2nnnc2SCC(=O)c2cc(C)n(-c3cc(C)on3)c2C)c(C)c1`, for which the cell number change was -42.4%. Further, under setting [2], the AC50 is 13 µM [falling, partial curve, poor fit]. For the same compound, the AC50 under setting [1] was 20.6 µM [falling, partial curve, poor fit].

Consider `Cc1cccc(C)c1NC(=O)CN(C)C(=O)CC1OC(=O)c2ccccc21` (stereo not given), for which the AC50 under setting [2] is 1.46 µM [rising, partial curve].

With `COC(=O)c1ccc(N/C=C/C(=O)c2ccc(OC)c(OC)c2)cc1`, the cell number change stood at 24.1%. Under setting [1], the AC50 was 0.184 µM [rising, full curve].

For `CCOC(=O)c1cnc(-n2nc(C)cc2C)nc1NNc1nc(C)cc(C)n1`, the cell number change is -44.3%. For the same compound, under setting [2], the AC50 was 29.1 µM [falling, single point]. Besides, the AC50 under setting [1] was 29.1 µM [falling, single point].

For `O=C(CN1CCCCC1)NNc1nc(-c2ccccc2)c2cc(Cl)ccc2n1`, the cell number change is 131%. In addition, the AC50 under setting [2] was 29.1 µM [rising, partial curve]. Further, the AC50 under setting [1] is 23.1 µM [rising, single point].

Consider `CC(C)NS(=O)(=O)c1ccc(NC(=O)C(C)OC(=O)CCC2CCCCC2)cc1` (stereo not given), for which the cell number change was -27.6%.

As for `CCN(CC)c1ncc(C)c(=O)[nH]1`, the cell number change stood at 0.369%. For the same compound, the AC50 under setting [1] is 5.17 µM [falling, full curve].

With `CC1=C(C(=O)Nc2ccccc2C(=O)NCCCOC(C)C)SCCO1`, the cell number change came out at 16.9%. Under setting [1], the AC50 is 6.51 µM [falling, single point].

Turning to `COCC1CCN(C(=O)c2cc(COc3ccc(-n4cncn4)cc3)on2)CC1`, the cell number change is -2.16%. The AC50 under setting [1] is 2.06 µM [rising, partial curve, poor fit].

Take `O=C(NCc1ccc(C(F)(F)F)cc1)C1CC(c2ccccc2[N+](=O)[O-])=NO1` (stereo not given): the cell number change is -18.3%.

On to `COc1ccc(COCCN2CCN(S(=O)(=O)c3ccccc3)CCC2=O)cc1`, for which the cell number change stood at 4.29%. The AC50 under setting [1] was 11.6 µM [rising, partial curve].

`O=C(CSc1nnc2n(C3CCCCC3)c(=O)c3ccccc3n12)OC1CCCCC1`: the cell number change is -25.1%.

`O=C(COC(=O)C12CC3CC(CC(O)(C3)C1)C2)NC(=O)NCc1ccco1`: the cell number change stood at 2.42%. Moreover, the AC50 under setting [1] was 4.61 µM [falling, full curve, poor fit].

Turning to `COc1ccc(/C(C)=N/NC(=O)c2ccc3nc[nH]c3c2)cc1`, the cell number change is -26%.

Consider `OC(c1ccccc1)(C1CCCCC1)C(CN1CCOCC1)c1ccccc1` (stereo not given), for which the cell number change is -57.8%. Moreover, the AC50 under setting [2] was 20.6 µM [falling, single point]. Moreover, the AC50 under setting [1] is 29.1 µM [falling, single point].

Regarding `Cc1cc(C)nc(NS(=O)(=O)c2ccc(NC(=O)Nc3ccccc3)cc2)n1`, the AC50 was 3.26 µM [rising, single point] under setting [2] and 6.51 µM [rising, single point] under setting [1].

As to `Cn1c(CCNC(=O)c2ccc(F)cc2)nc2ccccc21`, the cell number change came out at 5.03%.

As for `CCC(=O)Nc1ccc2c(c1)C(=O)N(C)C2=O`, the cell number change was -9.58%. Also, the AC50 under setting [1] was 29.1 µM [falling, single point].

On to `CC(C)(C)N1C(=O)c2ccccc2NC(=O)N1Cc1ccc(Br)cc1`, for which the cell number change was determined as 28.1%.

Turning to `O=C(OC(C(=O)NCc1ccccc1)c1ccccc1)c1ccco1` (stereo not given), the cell number change was determined as 17.9%. Under setting [1], the AC50 was 0.116 µM [falling, single point].

Consider `COc1ccc(-c2cc(C)no2)cc1S(=O)(=O)NCC(C)c1ccccc1` (stereo not given), for which the cell number change was -16%. Also, under setting [1], the AC50 was 29.1 µM [falling, single point].

As for `COc1ccc(C(=O)Nc2ccc(S(=O)(=O)N3CCOCC3)cc2)cc1[N+](=O)[O-]`, the cell number change was -1.35%. In addition, the AC50 under setting [1] is 29.1 µM [falling, single point].

For the compound `CC1(C)CC(=O)C2=C(C1)Nc1ccccc1NC2c1ccc(F)c(F)c1` (stereo not given), the cell number change was -22.3%. For the same compound, under setting [1], the AC50 was 14.6 µM [falling, single point].

As for `Cn1cc([N+](=O)[O-])c(C(=O)NC2CCCCCCC2)n1`, the cell number change worked out at 11.6%.

For `COc1cc(C(=O)Nc2nccs2)ccc1OCc1c(C)noc1C`, the AC50 reads like this: under setting [2], 0.259 µM [rising, partial curve, poor fit]; under setting [1], 0.291 µM [rising, partial curve].

Take `CCOc1ccc(C(CC(=O)O)NC(=O)C(CC)c2ccccc2)cc1` (stereo not given): the cell number change is -1.39%. Also, under setting [1], the AC50 was 29.1 µM [falling, single point].

Regarding `COc1ccc(-c2nc3nc(C)cc(Nc4cccc(C(F)(F)F)c4)n3n2)cc1`, the cell number change came to 12.4%. Under setting [1], the concentration at half-maximal activity (AC50) is 9.2 µM [rising, partial curve].

With `COc1ccc(NC(=O)c2cc(-c3ccccc3)oc2C)cc1`, the cell number change was determined as 38.5%. Also, the AC50 under setting [2] is 10.3 µM [rising, partial curve, poor fit].

Regarding `Cc1ccc(-c2nc(COC(=O)c3c(C)noc3C)cs2)cc1`, the cell number change is -26.4%. The AC50 under setting [1] was 16.4 µM [falling, single point].

With `Cn1c(SCC(=O)Nc2ccc(N3CCOCC3)cc2)nnc1C(F)(F)F`, the cell number change came to 2.33%. Further, the AC50 under setting [1] is 0.651 µM [falling, single point].

Turning to `CCOC(=O)CSc1nc2ccc(S(=O)(=O)N3CCOCC3)cc2[nH]1`, the cell number change was -15.3%. In addition, the AC50 under setting [2] is 0.0651 µM [falling, partial curve]. In addition, under setting [1], the half-maximal activity concentration (AC50) is 0.206 µM [falling, full curve, poor fit].

For the compound `Cc1ccc(N2CCN(C(=O)C3CCC(=O)N(Cc4ccc(Cl)cc4)C3)CC2)c(C)c1` (stereo not given), under setting [1], the AC50 was 0.58 µM [falling, single point].

For `O=C(Nc1scc(-c2ccccc2)c1C(=O)O)c1ccccc1F`, the cell number change was 37.5%. For the same compound, under setting [1], the AC50 is 29.1 µM [rising, single point].

In the case of `CCOc1ccc(C(=O)Cc2ccc3oc(C(=O)O)cc3c2)c(O)c1`, the cell number change is -101%. Also, the AC50 under setting [2] is 32.6 µM [falling, partial curve]. Also, under setting [1], the AC50 is 20.6 µM [falling, partial curve].

Regarding `O=c1[nH][nH]c2cc(=O)n(-c3cccc(C(F)(F)F)c3)nc12`, the cell number change is -24.8%. Under setting [1], the AC50 was 23.1 µM [falling, single point].

`CCc1ccc(C(=O)Nc2cccc(-c3nn[nH]n3)c2)s1`: the cell number change is -19.2%.

Turning to `Cc1cccc(N2CC(C(=O)Nc3nnc(SCC(=O)Nc4nccs4)s3)CC2=O)c1` (stereo not given), the cell number change is -66.7%. In addition, the AC50 under setting [2] was 0.0146 µM [falling, full curve]. For the same compound, the AC50 under setting [1] is 0.0651 µM [falling, full curve, poor fit].

`CC(=O)N(c1ccc(C)cc1)c1nc(C)cc(C)c1C#N`: the cell number change amounted to 15.2%.

Turning to `O=C(NCCCN1CCCCC1)c1ccc2c(=O)n(CCc3ccccc3)c(=O)[nH]c2c1`, the cell number change is -48.2%. Also, the AC50 under setting [2] was 18.4 µM [falling, single point]. Further, the AC50 under setting [1] was 23.1 µM [rising, single point].

Consider `Cc1ccc(N(C)C(=O)C2CCCN2S(=O)(=O)c2ccc3c(c2)n(C)c(=O)c(=O)n3C)cc1` (stereo not given), for which the cell number change is -25.5%.
